Experimental data as given in patent US20120014912A1, “PALATABLE PHARMACEUTICAL COMPOSITION” (VERTEX PHARMACEUTICALS INCORPORATED, priority 2010, published 2012).

Assay: Taste and mouthfeel of VX-950 on oral intake (background finding)

CCC[C@H](NC(=O)[C@@H]1[C@H]2CCC[C@H]2CN1C(=O)[C@@H](NC(=O)[C@@H](NC(=O)c1cnccn1)C1CCCCC1)C(C)(C)C)C(=O)C(=O)NC1CC1 [VX-950]
bitter taste (VX-950 and excipients necessary to formulate it): very bitter | mouthfeel / mouth irritation (orally digested): leaves a dry mouthfeel and/or mouth irritation
